Measured values: paper doi:10.1101/2023.12.06.570334
No constants are given. Whether binding was seen depends on the method and setting. In cells and extracts the contact can be indirect. Some results given as binding are weak or reduced against the parent protein; the word gives no strength. Where a sequence is shown, tags or fusion partners need not be part of it.

T1: FLAG-NEXN (mouse) (UniProt Q7TPW1)
T1 sequence: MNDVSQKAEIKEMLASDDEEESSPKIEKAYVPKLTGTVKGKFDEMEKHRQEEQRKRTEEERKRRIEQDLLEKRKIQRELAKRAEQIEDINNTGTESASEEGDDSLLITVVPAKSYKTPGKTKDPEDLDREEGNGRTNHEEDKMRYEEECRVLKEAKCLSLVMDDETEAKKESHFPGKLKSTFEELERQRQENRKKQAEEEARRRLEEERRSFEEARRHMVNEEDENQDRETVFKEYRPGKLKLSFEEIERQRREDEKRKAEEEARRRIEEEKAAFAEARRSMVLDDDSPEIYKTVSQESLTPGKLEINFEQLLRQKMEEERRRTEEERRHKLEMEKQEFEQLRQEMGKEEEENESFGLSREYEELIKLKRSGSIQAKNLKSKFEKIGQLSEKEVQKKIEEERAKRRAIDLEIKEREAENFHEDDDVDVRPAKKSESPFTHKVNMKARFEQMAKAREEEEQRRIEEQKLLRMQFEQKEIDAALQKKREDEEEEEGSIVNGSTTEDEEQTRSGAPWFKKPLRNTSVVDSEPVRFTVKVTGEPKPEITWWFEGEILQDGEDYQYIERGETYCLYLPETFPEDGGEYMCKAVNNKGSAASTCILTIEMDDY

T2: HA-PALMD (UniProt Q9JHU2)
T2 sequence: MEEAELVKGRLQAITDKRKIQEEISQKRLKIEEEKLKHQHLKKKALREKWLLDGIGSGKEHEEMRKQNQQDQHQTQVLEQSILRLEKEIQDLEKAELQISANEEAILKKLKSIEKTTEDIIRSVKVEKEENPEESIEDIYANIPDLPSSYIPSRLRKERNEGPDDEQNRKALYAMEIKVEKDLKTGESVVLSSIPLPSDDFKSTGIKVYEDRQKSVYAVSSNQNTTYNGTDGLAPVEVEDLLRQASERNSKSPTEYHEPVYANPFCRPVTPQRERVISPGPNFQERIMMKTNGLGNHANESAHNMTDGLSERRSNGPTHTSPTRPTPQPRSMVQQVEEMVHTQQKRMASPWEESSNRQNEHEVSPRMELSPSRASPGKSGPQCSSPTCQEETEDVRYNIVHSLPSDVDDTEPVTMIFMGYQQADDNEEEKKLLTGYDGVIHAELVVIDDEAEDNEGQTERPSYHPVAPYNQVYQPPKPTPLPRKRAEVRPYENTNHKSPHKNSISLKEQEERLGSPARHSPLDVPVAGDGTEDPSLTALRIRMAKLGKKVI

B1: HA-PALMD (protein, UniProt Q9JHU2 1-551)
chain: T2 sequence
B2: FLAG-NEXN (protein, UniProt Q7TPW1 1-607)
chain: T1 sequence

How the values were obtained:
FLAG-NEXN (mouse) = target: T1, FLAG-NEXN (mouse); experiment: co-IP
HA-PALMD = target: T2, HA-PALMD; experiment: co-IP

Binder	binding (FLAG-NEXN (mouse))	binding (HA-PALMD)
B1	binds	
B2		binds
